These results are taken from PMC12622440.

Sequences of proteins named here, by UniProt entry; tags and fusion partners are left off.
UniProt Q15717: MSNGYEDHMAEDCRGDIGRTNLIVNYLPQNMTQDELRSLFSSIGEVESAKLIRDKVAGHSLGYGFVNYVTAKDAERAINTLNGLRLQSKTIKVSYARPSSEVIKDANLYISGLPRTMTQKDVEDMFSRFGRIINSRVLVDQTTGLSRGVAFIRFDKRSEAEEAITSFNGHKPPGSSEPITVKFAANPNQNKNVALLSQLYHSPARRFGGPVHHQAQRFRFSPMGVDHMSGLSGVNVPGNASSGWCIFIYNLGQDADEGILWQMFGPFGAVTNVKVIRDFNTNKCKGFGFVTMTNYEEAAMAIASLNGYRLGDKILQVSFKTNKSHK

No constants are given. Whether binding was seen depends on the method and setting. In cells and extracts the contact can be indirect. Some results given as binding are weak or reduced against the parent protein; the word gives no strength.

Assay in all cases: co-IP; 293T cells with exogenously expressed GGH (or GGH domain 1 or 2) and HuR, reciprocal precipitation, NP40 lysis buffer, Western blot; full-length GGH also with or without RNase A (pull-down of HuR reduced after RNase A)
(A western blot detects proteins with antibodies after separation by electrophoresis.)

Assay [1] deals with T1, GGH domain 2 (peptidase domain, amino acids 25-318) (UniProt Q92820).
T1 sequence: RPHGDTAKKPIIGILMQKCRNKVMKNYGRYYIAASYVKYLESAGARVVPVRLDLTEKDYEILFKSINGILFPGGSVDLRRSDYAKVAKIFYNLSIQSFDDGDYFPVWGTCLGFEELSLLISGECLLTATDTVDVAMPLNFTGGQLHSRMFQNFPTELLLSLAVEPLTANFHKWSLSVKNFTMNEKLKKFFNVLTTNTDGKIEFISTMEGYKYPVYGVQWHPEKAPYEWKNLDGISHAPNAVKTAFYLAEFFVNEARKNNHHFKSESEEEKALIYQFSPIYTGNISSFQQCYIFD

Assay [2] has as its target T2, GGH domain 1 (signal domain, amino acids 1-24) (UniProt Q92820).
T2 sequence: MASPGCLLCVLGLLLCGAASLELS

The target in assay [3] is HuR, exogenously expressed in 293T cells (UniProt Q15717).

“HuR, exogenously expressed in 293T cells (from UniProt Q15717 1-326)”: the binding entry in assay [1] and in assay [2] was “binds” each time.

B1: GGH domain 2 (peptidase domain, amino acids 25-318) (domain or fragment, UniProt Q92820 25-318)
chain: T1 sequence
Consider B1, for which, in assay [3], the binding result is recorded as “binds”. For the molecule MASPGCLLCVLGLLLCGAASLELS (domain or fragment, UniProt Q92820 1-24) [GGH domain 1 (signal domain, amino acids 1-24)], in assay [3], the binding result was “binds”.
